According to patent US20020044973A1, “MICROPARTICLES AND THEIR USE IN CANCER TREATMENT” (priority 1997, published 2002):
Values after ≈ are worked out from the molar mass of the structure shown.

Tested on: MCF7 cell line
Assay: Cytotoxicity in doxorubicin-sensitive human breast cancer cell line (cell counting, Coulter Counter)
Assay type: cell-based
Details: MCF7 parent cell line, 24 hours incubation, further 72 hours before counting

Which IC50 does the source give for COc1cccc2c1C(=O)c1c(O)c3c(c(O)c1C2=O)C[C@@](O)(C(=O)CO)C[C@@H]3O[C@H]1C[C@H](N)[C@H](O)[C@H](C)O1 [doxorubicin] here?
The IC50 was 0.031 µg/mL (≈ 0.057 µM).
